Measured values published in the supplement of paper PMC6078165.

Test system: MDAMB468
Assay: relative JC-1 red fluorescence (viability) vs pre-drug, coculture with fibroblast (fraction); higher = more viable cancer cells
Method: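 JC-1 labelled TNBC cells cocultured 1:1 (1,500 cells each) with CellTrace Violet stained primary or stromal fibroblasts in 384-well plates in FluoroBrite medium, treated with one of 42 anticancer drugs at 0.1, 1, 10 or 100 uM. JC-1 red fluorescence (mitochondrial integrity in cancer cells only) was read by plate reader every 8 h for 72 h. Values are normalised to each well's pre-drug value. The stock of one drug was tenfold lower, so its dose labels may be too high.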

Nc1ncn([C@@H]2O[C@H](CO)[C@@H](O)[C@H]2O)c(=O)n1 [Azacitidine]
relative JC-1 red fluorescence
Details	8 h	16 h	24 h	32 h	40 h	48 h	56 h	64 h	72 h
1 µM, coculture fibroblast: WS1	–	–	–	–	–	–	–	–	0.612
10 µM, coculture fibroblast: C12385	0.8303	0.758	0.679	0.609	0.569	0.561	0.52	0.483	0.457
10 µM, coculture fibroblast: H6013	0.837	0.808	0.7395	0.686	0.6571	0.663	0.637	0.624	0.581
10 µM, coculture fibroblast: H6019	0.836	0.841	0.847	0.86	0.869	0.888	0.859	0.864	0.861
10 µM, coculture fibroblast: H6076	0.867	0.849	0.822	0.845	0.791	0.798	0.787	0.805	0.855
10 µM, coculture fibroblast: H6231	0.841	0.949	0.873	0.85	0.804	0.776	0.704	0.662	0.644
10 µM, coculture fibroblast: HADF	0.8436	0.7733	0.692	0.6674	0.61	0.595	0.549	0.535	0.479
10 µM, coculture fibroblast: HCFa	0.8495	0.7972	0.717	0.678	0.614	0.61	0.564	0.529	0.482
10 µM, coculture fibroblast: HCPF	0.862	0.924	0.833	0.838	0.7788	0.75	0.693	0.661	0.649
10 µM, coculture fibroblast: HHSteC	0.87	0.829	0.783	0.745	0.705	0.719	0.665	0.646	0.589
10 µM, coculture fibroblast: HMF	0.797	0.915	0.808	0.776	0.708	0.675	0.62	0.599	0.56
10 µM, coculture fibroblast: HPFa	0.89	0.833	0.776	0.709	0.674	0.67	0.62	0.598	0.515
10 µM, coculture fibroblast: HUF	0.87833	0.793	0.736	0.673	0.634	0.615	0.58	0.561	0.538
10 µM, coculture fibroblast: Hs5	0.83	0.915	0.898	0.8388	0.77	0.735	0.687	0.645	0.65
10 µM, coculture fibroblast: Hs27A	0.8459	0.818	0.744	0.741	0.692	0.677	0.63	0.607	0.544
10 µM, coculture fibroblast: Hs343T	0.857	0.9219	0.8445	0.83	0.751	0.716	0.671	–	0.631
10 µM, coculture fibroblast: WS1	0.809	0.743	0.682	0.617	0.578	0.553	0.521	0.495	0.478
100 µM, coculture fibroblast: C12385	0.8605	0.755	0.721	0.6496	0.614	0.603	0.559	0.543	0.521
100 µM, coculture fibroblast: H6013	0.743	0.678	0.626	0.5719	0.55	0.55	0.518	0.507	0.453
100 µM, coculture fibroblast: H6019	0.758	0.6938	0.648	0.584	0.559	0.565	0.553	0.5759	0.5946
100 µM, coculture fibroblast: H6076	0.83175	0.747	0.651	0.65	0.5696	0.564	0.54	0.528	0.599
100 µM, coculture fibroblast: H6231	0.884	0.896	0.796	0.811	0.745	0.752	0.716	0.7	0.708
100 µM, coculture fibroblast: HADF	0.822	0.729	0.681	0.641	0.594	0.574	0.523	0.512	0.453
100 µM, coculture fibroblast: HCFa	0.732	0.711	0.6577	0.63308	0.596	0.59	0.546	0.514	0.472
100 µM, coculture fibroblast: HCPF	0.913	0.853	0.93	0.923	0.84	0.805	0.746	0.725	0.707
100 µM, coculture fibroblast: HHSteC	0.813	0.767	0.71	0.645	0.625	0.636	0.578	0.556	0.501
100 µM, coculture fibroblast: HMF	0.908	0.954	0.964	0.948	0.85	0.837	0.796	0.778	0.773
100 µM, coculture fibroblast: HPFa	0.845	0.759	0.735	0.663	0.649	0.646	0.584	0.575	0.505
100 µM, coculture fibroblast: HUF	0.912	0.773	0.695	0.625	0.575	0.558	0.51	0.5	0.488
100 µM, coculture fibroblast: Hs5	0.864	0.9962	0.834	0.801	0.9514	0.932	0.923	0.905	0.856
100 µM, coculture fibroblast: Hs27A	0.785	0.686	0.654	0.633	0.597	0.593	0.56	0.539	0.467
100 µM, coculture fibroblast: Hs343T	0.85167	0.88	0.796	0.77	0.679	0.661	0.624	0.612	0.611
100 µM, coculture fibroblast: WS1	0.853	0.744	0.7288	0.667	0.618	0.583	0.534	0.499	0.482

The reference is the same well before dosing, and untreated signal decays as well.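 Labels refer to human fibroblasts, largely primary: uterine (C12385, HUF), lung (H6013), bone (Hs27A), adrenal (HADF), skin (WS1), plus mammary HMF and breast cancer-associated Hs343T. Cancer lines are basal-like or mesenchymal-like triple-negative breast cancer. The paper counts as hits responses shifting over 3x the replicate standard deviation. The tissue of the other fibroblasts is not given here.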
